Measured values published in the supplement of paper PMC10338343.
± gives the standard deviation. The list shows a part of the results, in another mix than the full data. Many of these values have a large error. The list shows a part of the results.

Columns and labels:
[1] = test system: MILI (PIWIL2) piRISC loaded with L1MC piRNA (26 nt); experiment: pre-steady-state target cleavage rate (min^-1); higher = faster piRNA-guided slicing of the target; details: guide: L1MC piRNA 5'p-UAACUAAAUACUAUGCAAGCUGUAGG
Outline: (§1)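 At 33 °C in HEPES–potassium acetate buffer, a transcribed, DNA-blocked target RNA library […] was exposed for 0–8 or 0–960 min to 1 nM active affinity-purified piRISC carrying a single synthetic guide, with or without 500 nM GTSF1 partner protein. Uncleaved targets were sequenced and normalised to depth and to weakly complementary targets. With three trials pooled and k3 capped at 0.0001 min^-1, a burst-and-steady-state fit produced the pre-steady-state cleavage rate.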

[2] = test system: MIWI (PIWIL1) piRISC loaded with L1MC piRNA (30 nt); experiment: as above; details: guide: L1MC piRNA 5'p-UAACUAAAUACUAUGCAAGCUGUAGGUCCU
Outline: as §1

[3] = test system: EfPiwi piRISC loaded with L1MC piRNA (26 nt); experiment: pre-steady-state target cleavage rate (min^-1); guide: L1MC piRNA 5'p-UAACUAAAUACUAUGCAAGCUGUAGG; MIWI and MILI are mouse PIWI proteins and EfPiwi is from a freshwater sponge; tags in brackets are library labels; higher = faster piRNA-guided slicing of the target
Outline: as §1

[4] = auxiliary factor: none (no GTSF1)
[5] = auxiliary factor: none (no Gtsf1)
[6] = auxiliary factor: 500 nM Ephydatia muelleri Gtsf1
[7] = auxiliary factor: 500 nM mouse GTSF1

Row | Sequence | pre-steady-state target cleavage rate [1, 4] | pre-steady-state target cleavage rate [2, 4] | pre-steady-state target cleavage rate [3, 5] | pre-steady-state target cleavage rate [3, 6] | pre-steady-state target cleavage rate [2, 7] | pre-steady-state target cleavage rate [1, 7]
1 | UCCUGGAUGAGCUAGCAUAGUAUUUAGAAA | 0.00129 ± 0.005 | 0.00104 ± 0.0044 | 0.0005 ± 0.016 | – | – | –
2 | UCCUGGAACAGCUUGCAUAGAAUUUUCAAA | 0.000835 ± 0.0061 | 0.00179 ± 0.0045 | – | 0.00175 ± 0.003 | – | –
3 | UCCUGGAACAGCUUGCAUAGAUAUUAGUAA | 0.000548 ± 0.013 | 0.000769 ± 0.0088 | – | 0.000281 ± 0.015 | – | –
4 | UCCUGGUACAGCUUGCAUAGUAUAUAGAAA | 0.000881 ± 0.0071 | 0.00167 ± 0.0048 | – | 0.002 ± 0.0032 | – | –
5 | UCCUGGAUGUCCUUGCAUCAGUAUUUAGUUA | 0.000777 ± 0.0076 | 0.000434 ± 0.019 | – | 0.0012 ± 0.0066 | – | –
6 | UCCUGGAUGUCGAAGCUUAGUAUAUAGUUA | 0.000139 ± 0.028 | 0.000205 ± 0.028 | – | 0.0002 ± 0.016 | – | –
7 | UCCUGGAUGUCCAUGCAUAGUAAUUAGUUA | 0.00266 ± 0.0032 | 0.0012 ± 0.0063 | – | 0.000626 ± 0.0055 | – | –
8 | UCCUGGAUGUCGAACGAUUCUAUUUAGUUA | 0.000365 ± 0.0084 | 0.000537 ± 0.0096 | – | 0.000146 ± 0.017 | – | –
9 | UCCUGGAUGUCGAAGCUUAGUAUUUAGAUA | 0.000271 ± 0.014 | 0.000488 ± 0.011 | – | 0.000166 ± 0.018 | – | –
10 | UCCUCCUAGUCCUUGCAUAGUAUUUAGAAA | 0.00101 ± 0.0048 | 0.00186 ± 0.0026 | – | 0.00217 ± 0.0013 | – | –
11 | UCCUGGAUGUCGUUGCAUAGAAUUUUGUUA | 0.000536 ± 0.01 | – | 0.000254 ± 0.024 | – | 0.000123 ± 0.031 | –
12 | UCCUGGUACAGCUUGGAUAGUAUUUUCAAA | 0.00214 ± 0.0048 | 0.00123 ± 0.0058 | – | 0.000908 ± 0.01 | – | –
13 | UCCUGGAUGAGGUUGCAUAGUAUUUAGAUA | 0.00123 ± 0.0055 | 0.00208 ± 0.0033 | – | 0.00218 ± 0.0024 | – | –
14 | UCCUCCUACAGCUUGCAUAGUAUAAUCAAA | 0.00114 ± 0.005 | 0.000571 ± 0.008 | – | 0.00234 ± 0.0031 | – | –
15 | UCCUGCUACAGCUUGCUUAGUAUUUAGAAA | 0.0011 ± 0.0047 | 0.00148 ± 0.0035 | 0.000355 ± 0.011 | – | – | –
16 | UCCUGGAACAGCUUGCAUUCAAUUUAGAAA | 0.000405 ± 0.014 | 0.000482 ± 0.0097 | – | 0.00037 ± 0.0084 | – | –
17 | UCCUCCUACAGCUUGCAUAGUUAUUUCAAA | 0.0012 ± 0.0045 | 0.000304 ± 0.0094 | – | 0.00266 ± 0.0043 | – | –
18 | UCCUGGAUGUCGAUGCAUAGUAUUUAGGUA | 0.00125 ± 0.0046 | 0.00111 ± 0.0062 | – | 0.000503 ± 0.0091 | – | –
19 | UCCUGGAUCAGCUUGCAUAGCUAUUUAGUUA | 0.00121 ± 0.0057 | 0.00185 ± 0.0049 | – | 0.000647 ± 0.0041 | – | –
20 | UCCUGGAACAGCUUGCAUAGUUAAAUCAAA [g10:g23:cont:t1A] | 0.000865 ± 0.0064 | 0.00126 ± 0.005 | – | 0.000369 ± 0.011 | – | –
21 | UCCUGGAUGUCGUUGCAUAGUAUUUAGCUUA | 0.00198 ± 0.0045 | 0.00174 ± 0.0045 | – | 0.000654 ± 0.0057 | 0.00223 ± 0.005 | –
22 | UCCUGGUACAGCUUGCAUACGUAUUUAGUUA | 0.00282 ± 0.0056 | 0.00024 ± 0.018 | – | 0.00136 ± 0.0058 | 0.00124 ± 0.012 | –
23 | UCCUGGUACUCGUUGCAUAGUAUUUACAAA | 0.00087 ± 0.011 | 0.000831 ± 0.011 | – | 0.00137 ± 0.0057 | 0.00201 ± 0.0094 | –

Row | Sequence | pre-steady-state target cleavage rate [1, 4] | pre-steady-state target cleavage rate [2, 4] | pre-steady-state target cleavage rate [3, 5] | pre-steady-state target cleavage rate [3, 6] | pre-steady-state target cleavage rate [2, 7] | pre-steady-state target cleavage rate [1, 7]
24 | UCCUGGAUCAGCUUGCAUAGUAAAUAGAAA | 0.00163 ± 0.0037 | 0.00158 ± 0.003 | – | 0.00131 ± 0.0037 | 0.00348 ± 0.0042 | –
25 | UCCUGGAUCAGCUUGCUAAGUAUUUAGAAA | 0.00139 ± 0.0038 | 0.00181 ± 0.0039 | – | 0.000393 ± 0.0076 | 0.00237 ± 0.0056 | –
26 | UCCUCCUACAGCUUGCAUAGUUUUUACAAA | 0.0014 ± 0.0044 | 0.0016 ± 0.0043 | – | 0.00552 ± 0.0037 | 0.185 ± 0.029 | –
27 | UCCUGGAUGAGCUUGCAAUCUAUUUAGUAA | 0.000182 ± 0.019 | 0.000805 ± 0.01 | – | 0.000202 ± 0.019 | 0.00113 ± 0.008 | –
28 | UCCUGGAUGUCCUUGCAUAGAUAUUAGUUA | 0.00133 ± 0.0041 | 0.00114 ± 0.007 | – | 0.00105 ± 0.0052 | 0.00346 ± 0.0043 | –
29 | UCCUGGUACAGCUUGCAUGAGUAUUUAGUUA | 0.00204 ± 0.0065 | 0.000605 ± 0.016 | – | 0.000708 ± 0.0084 | 0.00254 ± 0.0065 | –
30 | UCCUGGAUGAGGUUGCAUAGUAUUUAGAAA | 0.00052 ± 0.011 | 0.000852 ± 0.0073 | – | 0.00315 ± 0.0029 | 0.00106 ± 0.0085 | –
31 | UCCUGGAUGUGCUUCCAUAGUAAUUAGUUA | 0.000553 ± 0.01 | 0.000599 ± 0.011 | – | 0.00034 ± 0.014 | 0.00337 ± 0.0051 | –
32 | UCCUGGAUGUCCUUGCAUUGUAUUUAGUAA | 0.0023 ± 0.0029 | 0.00131 ± 0.0048 | – | 0.00131 ± 0.0053 | 0.00258 ± 0.0061 | –
33 | UCCUCCCACAGCUUGCAUAGUAUUUAGUUA | – | 0.0641 ± 0.012 | – | 0.128 ± 0.029 | 1.15 ± 0.04 | 0.296 ± 0.015
34 | UCCUGGAUGUCCUUGGAAAGUAUUUAGUUA | 0.00235 ± 0.0027 | 0.000937 ± 0.0059 | – | 0.00124 ± 0.0061 | 0.00378 ± 0.0039 | –
35 | UCCUCCUACAGCUUGUAUAGUAUUUAGUUA | – | 0.0427 ± 0.008 | – | 0.143 ± 0.033 | 1.38 ± 0.042 | 0.305 ± 0.018
36 | UCCUGGAUGUCGAUGCAUAGUAUUUAAUUA | 0.00107 ± 0.0067 | 0.000405 ± 0.018 | – | 0.00153 ± 0.0053 | 0.00251 ± 0.0049 | –
37 | UCCUGGAUGUCGUUCCAUAGUAUUUUGUUA | 0.000271 ± 0.02 | 0.000319 ± 0.023 | – | 0.000577 ± 0.0084 | 0.00176 ± 0.0071 | –
38 | UCCUGGAACAGCUUGCAUAGUAUUAUCUUA | 0.00134 ± 0.0053 | 0.00408 ± 0.0029 | – | 0.00359 ± 0.0037 | 0.141 ± 0.028 | –
39 | UCCUGGAUGUCGUUGCUUAGUAUUUAGAUA | 0.00177 ± 0.0041 | 0.000625 ± 0.0094 | – | 0.000338 ± 0.0097 | 0.000174 ± 0.035 | –
40 | UCCUGCUACAGCUUGCAUUAGUAUUUAGUUA | 0.00154 ± 0.0034 | 0.000989 ± 0.0071 | – | 0.00378 ± 0.003 | 0.0188 ± 0.0083 | –
41 | UCCUGGUACAGCUUGGUAAGUAUUUAGAAA | 0.0011 ± 0.0052 | 0.000795 ± 0.0096 | – | 0.00051 ± 0.0065 | 0.00172 ± 0.0081 | –
42 | UCCUGCUACAGCUUGCUUAGUAUUUUCAAA | 0.000746 ± 0.0066 | 0.000676 ± 0.0089 | – | 0.00321 ± 0.003 | 0.11 ± 0.028 | –
43 | UCCUGGAUGACGUUGCAUAGUAUUUACAAA | 0.0012 ± 0.005 | 0.00035 ± 0.01 | – | 0.000435 ± 0.0094 | 0.00126 ± 0.0095 | –
44 | UCCUGGAUGUCGUUGCCAUAGUAUUUAGUUA | 0.00067 ± 0.011 | 0.000481 ± 0.014 | – | 0.000216 ± 0.02 | 0.000779 ± 0.01 | –
45 | UCCUGGAUGUGCUUGCAUAGUAUAAAGUAA | 0.000732 ± 0.0074 | 0.00133 ± 0.0053 | – | 0.00248 ± 0.0044 | 0.00523 ± 0.0043 | –

Part of the list above, with each value named.
UCCUGGAUGUCCUUGGAAAGUAUUUAGUUA
  pre-steady-state target cleavage rate [1, 4]: 0.00235 ± 0.0027
  pre-steady-state target cleavage rate [2, 4]: 0.000937 ± 0.0059
  pre-steady-state target cleavage rate [3, 6]: 0.00124 ± 0.0061
  pre-steady-state target cleavage rate [2, 7]: 0.00378 ± 0.0039
UCCUGGAUGUGCUUGCAUAGUAUAAAGUAA
  pre-steady-state target cleavage rate [1, 4]: 0.000732 ± 0.0074
  pre-steady-state target cleavage rate [2, 4]: 0.00133 ± 0.0053
  pre-steady-state target cleavage rate [3, 6]: 0.00248 ± 0.0044
  pre-steady-state target cleavage rate [2, 7]: 0.00523 ± 0.0043
